Data on six substances can be found in publication doi:10.1101/059964.

The chains behind the UniProt entries cited, without tags or fusion partners.
UniProt Q8IXJ9: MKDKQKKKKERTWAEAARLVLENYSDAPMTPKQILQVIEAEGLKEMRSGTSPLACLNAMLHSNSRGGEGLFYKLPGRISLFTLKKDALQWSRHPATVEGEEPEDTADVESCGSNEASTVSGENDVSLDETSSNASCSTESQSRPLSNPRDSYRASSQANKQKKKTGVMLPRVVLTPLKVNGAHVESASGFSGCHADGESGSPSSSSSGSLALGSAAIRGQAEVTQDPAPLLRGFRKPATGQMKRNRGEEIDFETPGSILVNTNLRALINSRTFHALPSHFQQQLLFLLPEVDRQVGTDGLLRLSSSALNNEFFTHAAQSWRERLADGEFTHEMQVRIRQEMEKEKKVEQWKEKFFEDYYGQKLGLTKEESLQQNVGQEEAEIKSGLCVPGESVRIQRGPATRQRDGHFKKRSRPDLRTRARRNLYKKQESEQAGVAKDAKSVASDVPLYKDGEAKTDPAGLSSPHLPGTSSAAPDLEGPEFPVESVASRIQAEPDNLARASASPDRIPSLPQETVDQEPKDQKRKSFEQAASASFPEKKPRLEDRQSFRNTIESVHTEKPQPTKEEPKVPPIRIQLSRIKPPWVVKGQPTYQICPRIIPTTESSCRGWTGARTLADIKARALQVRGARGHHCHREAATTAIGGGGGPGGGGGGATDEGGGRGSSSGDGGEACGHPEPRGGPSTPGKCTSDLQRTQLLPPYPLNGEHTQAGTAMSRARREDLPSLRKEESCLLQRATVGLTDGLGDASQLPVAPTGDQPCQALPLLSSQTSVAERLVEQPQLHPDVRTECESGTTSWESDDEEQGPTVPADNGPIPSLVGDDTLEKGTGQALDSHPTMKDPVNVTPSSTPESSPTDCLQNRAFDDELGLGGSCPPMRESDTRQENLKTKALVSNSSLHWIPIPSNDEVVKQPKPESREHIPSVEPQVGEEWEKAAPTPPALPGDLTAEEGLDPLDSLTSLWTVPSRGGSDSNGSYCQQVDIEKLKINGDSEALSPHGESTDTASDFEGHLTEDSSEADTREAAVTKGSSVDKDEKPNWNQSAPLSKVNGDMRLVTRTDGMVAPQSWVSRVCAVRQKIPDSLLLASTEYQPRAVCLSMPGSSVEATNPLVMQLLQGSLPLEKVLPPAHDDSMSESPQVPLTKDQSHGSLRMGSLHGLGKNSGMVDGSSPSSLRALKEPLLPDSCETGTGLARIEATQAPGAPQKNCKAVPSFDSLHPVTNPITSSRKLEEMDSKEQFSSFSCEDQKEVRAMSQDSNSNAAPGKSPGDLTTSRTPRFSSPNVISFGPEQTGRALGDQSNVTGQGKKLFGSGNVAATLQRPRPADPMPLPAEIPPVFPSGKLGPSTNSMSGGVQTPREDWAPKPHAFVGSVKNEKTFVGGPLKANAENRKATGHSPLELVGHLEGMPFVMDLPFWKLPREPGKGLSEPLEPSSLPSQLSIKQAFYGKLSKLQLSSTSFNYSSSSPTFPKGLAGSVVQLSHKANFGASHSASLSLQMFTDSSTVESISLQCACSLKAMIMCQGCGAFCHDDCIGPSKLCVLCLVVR
UniProt Q92560: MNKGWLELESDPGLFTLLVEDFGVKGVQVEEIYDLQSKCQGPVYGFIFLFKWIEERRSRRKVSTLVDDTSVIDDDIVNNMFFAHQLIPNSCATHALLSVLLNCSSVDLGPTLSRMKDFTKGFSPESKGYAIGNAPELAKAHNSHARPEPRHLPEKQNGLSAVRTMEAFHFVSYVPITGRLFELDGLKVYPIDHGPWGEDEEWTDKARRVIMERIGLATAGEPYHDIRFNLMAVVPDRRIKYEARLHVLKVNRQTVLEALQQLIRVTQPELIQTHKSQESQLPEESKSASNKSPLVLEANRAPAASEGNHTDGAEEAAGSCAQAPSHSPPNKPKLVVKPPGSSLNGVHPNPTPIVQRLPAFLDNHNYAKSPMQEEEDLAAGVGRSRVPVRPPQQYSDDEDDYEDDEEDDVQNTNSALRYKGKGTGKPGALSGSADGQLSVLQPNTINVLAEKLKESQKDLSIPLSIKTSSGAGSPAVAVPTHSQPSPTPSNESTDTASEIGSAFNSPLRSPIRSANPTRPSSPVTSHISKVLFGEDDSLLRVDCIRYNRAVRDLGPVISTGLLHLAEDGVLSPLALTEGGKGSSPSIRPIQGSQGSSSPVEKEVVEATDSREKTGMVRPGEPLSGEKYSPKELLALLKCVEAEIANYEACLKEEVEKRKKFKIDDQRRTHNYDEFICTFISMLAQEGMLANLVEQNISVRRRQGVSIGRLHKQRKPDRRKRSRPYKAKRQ
UniProt Q99496: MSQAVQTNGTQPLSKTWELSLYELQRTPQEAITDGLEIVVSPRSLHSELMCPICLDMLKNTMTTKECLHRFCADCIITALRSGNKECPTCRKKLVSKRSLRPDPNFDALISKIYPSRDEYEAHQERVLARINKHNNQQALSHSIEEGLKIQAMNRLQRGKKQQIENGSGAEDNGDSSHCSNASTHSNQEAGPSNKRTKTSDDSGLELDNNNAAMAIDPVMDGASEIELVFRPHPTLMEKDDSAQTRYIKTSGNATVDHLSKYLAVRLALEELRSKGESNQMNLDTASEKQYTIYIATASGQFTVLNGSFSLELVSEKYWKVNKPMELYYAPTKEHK
UniProt O43189: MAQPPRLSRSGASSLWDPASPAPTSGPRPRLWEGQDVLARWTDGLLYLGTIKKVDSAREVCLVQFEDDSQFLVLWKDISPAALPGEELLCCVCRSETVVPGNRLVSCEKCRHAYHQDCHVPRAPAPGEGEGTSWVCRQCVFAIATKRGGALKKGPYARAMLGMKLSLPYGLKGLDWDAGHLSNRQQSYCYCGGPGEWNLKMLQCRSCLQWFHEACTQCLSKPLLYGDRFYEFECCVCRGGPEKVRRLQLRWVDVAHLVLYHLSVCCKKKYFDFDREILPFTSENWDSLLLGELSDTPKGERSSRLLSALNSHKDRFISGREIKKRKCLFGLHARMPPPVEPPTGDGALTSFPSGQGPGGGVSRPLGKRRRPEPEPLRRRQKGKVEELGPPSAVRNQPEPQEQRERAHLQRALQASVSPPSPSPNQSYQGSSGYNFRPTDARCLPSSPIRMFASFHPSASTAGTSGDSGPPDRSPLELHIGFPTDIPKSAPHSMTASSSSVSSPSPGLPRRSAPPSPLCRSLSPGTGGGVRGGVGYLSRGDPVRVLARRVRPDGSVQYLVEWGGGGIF
UniProt Q9Y483: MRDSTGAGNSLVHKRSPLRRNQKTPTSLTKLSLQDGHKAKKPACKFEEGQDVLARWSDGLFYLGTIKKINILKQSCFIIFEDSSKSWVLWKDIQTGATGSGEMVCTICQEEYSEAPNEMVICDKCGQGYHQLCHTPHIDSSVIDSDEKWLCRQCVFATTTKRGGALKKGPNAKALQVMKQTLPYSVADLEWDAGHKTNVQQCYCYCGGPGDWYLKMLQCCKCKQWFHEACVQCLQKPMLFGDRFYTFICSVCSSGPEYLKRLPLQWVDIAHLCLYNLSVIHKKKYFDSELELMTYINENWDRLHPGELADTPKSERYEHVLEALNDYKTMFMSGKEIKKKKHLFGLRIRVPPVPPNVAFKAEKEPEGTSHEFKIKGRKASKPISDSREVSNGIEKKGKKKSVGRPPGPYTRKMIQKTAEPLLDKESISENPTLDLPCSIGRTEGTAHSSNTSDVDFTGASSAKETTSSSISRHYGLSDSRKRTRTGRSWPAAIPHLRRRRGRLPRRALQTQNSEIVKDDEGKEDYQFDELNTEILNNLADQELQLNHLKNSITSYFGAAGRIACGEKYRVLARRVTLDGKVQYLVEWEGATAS
UniProt P31629: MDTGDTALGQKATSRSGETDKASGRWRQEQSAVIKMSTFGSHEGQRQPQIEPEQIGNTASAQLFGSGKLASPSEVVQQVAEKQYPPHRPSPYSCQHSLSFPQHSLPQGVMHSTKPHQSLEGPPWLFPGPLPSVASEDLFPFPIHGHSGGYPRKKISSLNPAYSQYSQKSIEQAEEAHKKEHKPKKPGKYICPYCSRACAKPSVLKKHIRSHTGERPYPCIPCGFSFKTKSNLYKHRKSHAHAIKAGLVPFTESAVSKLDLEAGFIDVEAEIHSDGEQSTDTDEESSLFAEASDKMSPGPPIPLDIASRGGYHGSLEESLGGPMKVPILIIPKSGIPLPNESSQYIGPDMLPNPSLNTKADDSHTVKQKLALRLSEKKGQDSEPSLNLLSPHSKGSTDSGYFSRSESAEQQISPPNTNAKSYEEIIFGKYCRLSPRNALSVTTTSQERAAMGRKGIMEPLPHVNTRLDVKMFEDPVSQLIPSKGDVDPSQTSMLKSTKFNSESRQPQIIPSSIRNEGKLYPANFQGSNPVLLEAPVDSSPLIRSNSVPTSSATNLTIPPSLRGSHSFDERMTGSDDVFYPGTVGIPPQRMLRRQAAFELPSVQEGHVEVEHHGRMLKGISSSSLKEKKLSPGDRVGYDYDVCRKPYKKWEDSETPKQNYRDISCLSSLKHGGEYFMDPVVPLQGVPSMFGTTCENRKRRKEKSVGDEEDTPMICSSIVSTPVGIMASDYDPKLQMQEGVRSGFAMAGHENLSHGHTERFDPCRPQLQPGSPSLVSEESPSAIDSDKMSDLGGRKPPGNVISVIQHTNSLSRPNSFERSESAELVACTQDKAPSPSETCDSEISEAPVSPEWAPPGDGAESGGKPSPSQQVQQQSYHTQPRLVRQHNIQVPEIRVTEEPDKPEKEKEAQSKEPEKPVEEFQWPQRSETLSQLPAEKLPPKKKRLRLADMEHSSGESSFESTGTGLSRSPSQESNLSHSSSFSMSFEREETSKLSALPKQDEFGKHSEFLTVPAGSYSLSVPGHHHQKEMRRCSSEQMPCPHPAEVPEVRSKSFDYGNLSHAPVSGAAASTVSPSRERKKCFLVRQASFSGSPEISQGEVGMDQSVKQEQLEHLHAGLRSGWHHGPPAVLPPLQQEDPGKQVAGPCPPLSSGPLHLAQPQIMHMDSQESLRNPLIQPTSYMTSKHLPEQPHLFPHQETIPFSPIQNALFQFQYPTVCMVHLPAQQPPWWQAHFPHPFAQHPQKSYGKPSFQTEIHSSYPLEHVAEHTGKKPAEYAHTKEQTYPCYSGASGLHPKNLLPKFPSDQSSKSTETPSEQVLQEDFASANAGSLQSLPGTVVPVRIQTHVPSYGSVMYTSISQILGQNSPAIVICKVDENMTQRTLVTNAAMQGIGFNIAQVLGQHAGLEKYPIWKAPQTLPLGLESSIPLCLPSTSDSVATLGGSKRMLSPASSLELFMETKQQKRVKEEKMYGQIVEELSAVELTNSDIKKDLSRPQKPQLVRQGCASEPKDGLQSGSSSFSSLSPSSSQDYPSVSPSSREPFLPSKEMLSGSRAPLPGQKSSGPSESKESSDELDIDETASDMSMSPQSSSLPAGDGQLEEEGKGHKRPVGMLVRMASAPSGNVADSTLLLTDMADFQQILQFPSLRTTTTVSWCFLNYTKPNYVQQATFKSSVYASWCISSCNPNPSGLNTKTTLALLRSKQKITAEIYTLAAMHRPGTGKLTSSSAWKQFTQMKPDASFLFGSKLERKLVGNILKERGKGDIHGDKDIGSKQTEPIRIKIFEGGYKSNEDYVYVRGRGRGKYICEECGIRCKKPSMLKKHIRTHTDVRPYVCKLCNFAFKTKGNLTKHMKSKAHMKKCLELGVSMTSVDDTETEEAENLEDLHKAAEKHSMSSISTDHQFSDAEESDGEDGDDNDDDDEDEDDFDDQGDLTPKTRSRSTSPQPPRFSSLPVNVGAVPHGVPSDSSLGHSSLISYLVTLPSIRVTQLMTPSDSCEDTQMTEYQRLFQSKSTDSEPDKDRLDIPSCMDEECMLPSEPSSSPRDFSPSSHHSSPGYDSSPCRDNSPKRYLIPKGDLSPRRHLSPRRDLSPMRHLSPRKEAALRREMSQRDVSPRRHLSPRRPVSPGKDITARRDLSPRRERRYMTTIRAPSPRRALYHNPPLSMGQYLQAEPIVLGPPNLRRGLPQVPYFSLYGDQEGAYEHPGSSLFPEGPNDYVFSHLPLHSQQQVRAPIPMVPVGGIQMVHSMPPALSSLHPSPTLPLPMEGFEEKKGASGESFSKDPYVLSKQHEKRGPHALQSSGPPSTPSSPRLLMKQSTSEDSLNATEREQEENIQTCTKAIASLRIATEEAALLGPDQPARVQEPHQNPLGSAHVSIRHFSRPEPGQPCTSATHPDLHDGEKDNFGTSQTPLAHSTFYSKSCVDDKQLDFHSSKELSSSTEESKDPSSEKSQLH
UniProt Q86SE9: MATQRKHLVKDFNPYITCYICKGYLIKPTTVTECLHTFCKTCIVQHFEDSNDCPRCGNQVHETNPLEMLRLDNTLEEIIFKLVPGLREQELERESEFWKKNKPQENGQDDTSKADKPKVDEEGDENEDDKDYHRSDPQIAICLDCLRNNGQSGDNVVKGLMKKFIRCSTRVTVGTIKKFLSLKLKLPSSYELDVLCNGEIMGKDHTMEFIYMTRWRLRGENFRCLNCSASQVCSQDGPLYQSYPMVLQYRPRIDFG

These are yes or no findings as the source states them, for the method shown. In cells and extracts the contact can be indirect. A yes stands for co-enrichment or nearness to the bait. Other partners may have been found. For some assays here: No binding means not detected with the bait.

Among the targets are ASXL1 (human) (UniProt Q8IXJ9); ASXL2 (human) (UniProt Q76L83); BAP1 (human) (UniProt Q92560); RING1 (human) (UniProt Q06587); CSK22 (human) (UniProt P19784); CSK21 (human) (UniProt P68400); RING2 (human) (UniProt Q99496); EZH2 (human) (UniProt Q15910); EZH1 (human) (UniProt Q92800); SUZ12 (human) (UniProt Q15022); C17ORF96 (human) (UniProt A6NHQ4); EED (human) (UniProt O75530); RBBP7 (human) (UniProt Q16576); C10ORF12 (human) (UniProt Q96JN0); PHF1 (human) (UniProt O43189); MTF2 (human) (UniProt Q9Y483); PHF19 (human) (UniProt Q5T6S3).

Holding throughout (assay): affinity purification with mass spectrometry
In a further experiment the target is T1, OGT1 (human) (UniProt O15294).
T1 sequence: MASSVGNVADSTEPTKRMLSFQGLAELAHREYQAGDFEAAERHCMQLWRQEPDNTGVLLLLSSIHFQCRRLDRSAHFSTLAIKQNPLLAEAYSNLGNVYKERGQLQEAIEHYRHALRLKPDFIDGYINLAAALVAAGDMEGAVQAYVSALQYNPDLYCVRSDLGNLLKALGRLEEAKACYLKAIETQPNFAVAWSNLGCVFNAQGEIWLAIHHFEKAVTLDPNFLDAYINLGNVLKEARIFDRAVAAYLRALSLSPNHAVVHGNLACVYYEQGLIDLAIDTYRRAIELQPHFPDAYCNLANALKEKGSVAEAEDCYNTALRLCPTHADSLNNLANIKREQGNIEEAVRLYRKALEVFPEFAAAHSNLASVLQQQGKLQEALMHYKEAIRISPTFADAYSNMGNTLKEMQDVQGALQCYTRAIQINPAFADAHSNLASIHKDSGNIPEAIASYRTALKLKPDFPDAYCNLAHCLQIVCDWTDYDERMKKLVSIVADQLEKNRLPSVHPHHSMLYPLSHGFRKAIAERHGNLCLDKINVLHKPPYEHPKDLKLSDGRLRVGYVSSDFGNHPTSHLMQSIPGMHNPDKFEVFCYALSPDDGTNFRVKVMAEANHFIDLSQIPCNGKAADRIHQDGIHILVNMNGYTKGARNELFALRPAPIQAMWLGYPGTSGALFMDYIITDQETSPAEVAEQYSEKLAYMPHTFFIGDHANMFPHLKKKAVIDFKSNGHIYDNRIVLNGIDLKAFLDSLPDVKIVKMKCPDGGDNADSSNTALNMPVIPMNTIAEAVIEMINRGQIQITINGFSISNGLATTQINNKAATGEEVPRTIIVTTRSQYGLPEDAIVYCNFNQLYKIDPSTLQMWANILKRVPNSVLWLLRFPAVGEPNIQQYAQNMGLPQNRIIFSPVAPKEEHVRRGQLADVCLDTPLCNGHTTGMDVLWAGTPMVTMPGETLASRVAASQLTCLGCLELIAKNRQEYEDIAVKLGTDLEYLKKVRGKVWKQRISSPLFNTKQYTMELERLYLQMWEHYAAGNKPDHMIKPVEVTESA

The next experiment has as its target T2, LCOR (human) (UniProt Q96JN0).
T2 sequence: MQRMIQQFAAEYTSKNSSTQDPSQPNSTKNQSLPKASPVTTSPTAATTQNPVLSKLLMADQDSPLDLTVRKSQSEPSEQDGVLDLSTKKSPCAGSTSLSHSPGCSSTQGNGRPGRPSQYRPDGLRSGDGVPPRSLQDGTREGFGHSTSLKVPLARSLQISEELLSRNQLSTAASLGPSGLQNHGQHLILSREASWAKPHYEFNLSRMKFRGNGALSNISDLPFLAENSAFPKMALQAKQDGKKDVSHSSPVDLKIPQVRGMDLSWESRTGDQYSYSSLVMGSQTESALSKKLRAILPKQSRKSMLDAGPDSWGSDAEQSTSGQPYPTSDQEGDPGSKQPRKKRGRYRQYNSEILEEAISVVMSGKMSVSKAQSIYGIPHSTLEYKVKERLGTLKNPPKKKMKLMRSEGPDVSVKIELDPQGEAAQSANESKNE

For another experiment, the target named is T3, RYBP (human) (UniProt Q8N488).
T3 sequence: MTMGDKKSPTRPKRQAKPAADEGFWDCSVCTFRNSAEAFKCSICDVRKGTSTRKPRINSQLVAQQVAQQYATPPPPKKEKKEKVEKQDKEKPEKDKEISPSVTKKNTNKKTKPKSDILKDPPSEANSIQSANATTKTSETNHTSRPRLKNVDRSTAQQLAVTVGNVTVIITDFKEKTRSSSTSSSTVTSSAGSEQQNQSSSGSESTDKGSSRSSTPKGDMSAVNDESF

Another experiment addresses T4, DCAF7 (human) (UniProt P61962).
T4 sequence: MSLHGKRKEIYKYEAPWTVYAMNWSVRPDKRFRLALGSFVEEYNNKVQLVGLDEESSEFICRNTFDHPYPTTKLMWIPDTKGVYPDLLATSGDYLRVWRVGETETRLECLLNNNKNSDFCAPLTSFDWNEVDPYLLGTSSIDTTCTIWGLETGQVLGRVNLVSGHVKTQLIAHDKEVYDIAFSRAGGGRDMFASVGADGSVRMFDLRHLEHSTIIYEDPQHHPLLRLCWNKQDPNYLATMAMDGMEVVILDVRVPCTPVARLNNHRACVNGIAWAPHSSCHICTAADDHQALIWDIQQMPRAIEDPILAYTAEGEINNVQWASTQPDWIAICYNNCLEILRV

Another experiment addresses T5, YAF2 (human) (UniProt Q8IY57).
T5 sequence: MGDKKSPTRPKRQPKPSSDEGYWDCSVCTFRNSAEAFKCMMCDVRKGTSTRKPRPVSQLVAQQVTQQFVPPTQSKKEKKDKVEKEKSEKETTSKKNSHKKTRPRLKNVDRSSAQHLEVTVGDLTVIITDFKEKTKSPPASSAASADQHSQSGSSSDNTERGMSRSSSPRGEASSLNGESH

Take ZEP2 (from UniProt P31629 1-2446): the binding result with ASXL1 (human) is given as “no binding”; with OGT1 (human) it was “binds”; with ASXL2 (human) it was “no binding”; with BAP1 (human), “no binding”.

CTBP2 (from UniProt P56545 1-445): in the experiment with LCOR (human), the binding result was “binds”.

Consider PCGF5 (from UniProt Q86SE9 1-256), for which the binding entry with RING1 (human), with CSK22 (human), in the experiment with CSK21 (human), in the experiment with RYBP (human), with RING2 (human) and with DCAF7 (human) was “binds” throughout. The binding result with YAF2 (human) is listed as “binds”.

Consider PHF1 (from UniProt O43189 1-567), for which the binding result in the experiment with EZH2 (human), in the experiment with EZH1 (human), with SUZ12 (human), with C17ORF96 (human), with EED (human) and with RBBP7 (human) was “binds” throughout. Moreover, the binding result with C10ORF12 (human) is “binds”.

Consider C10ORF12 (from UniProt Q96JN0-3), for which the binding entry with PHF1 (human), in the experiment with MTF2 (human) and with PHF19 (human) was “binds” throughout.

In the case of MTF2 (from UniProt Q9Y483 1-593), the binding result in the experiment with EZH2 (human), with EZH1 (human), with SUZ12 (human), with C17ORF96 (human), in the experiment with EED (human) and in the experiment with RBBP7 (human) was “binds” each time. For the same substance, the binding entry in the experiment with C10ORF12 (human) is reported as “binds”.
